Among the data in publication PMC6168497 are binding values, retold here.

The target of this test is 3xHA-MARF1 (transgenic full-length Drosophila MARF1) (Drosophila). In words: co-IP; anti-HA magnetic beads; ovary lysates of flies expressing 3xHA-MARF1 (full-length or fragments) and of w1118 negative control; lysis buffer 25 mM Tris-HCl pH 7.4, 150 mM NaCl, 1 mM EDTA, 1% IGEPAL CA-630, 5% glycerol; with or without 0.1 ug/ml RNase A; 4 °C overnight; Western blot.

No constants are given. Whether binding was seen depends on the method and setting. In cells and extracts the contact can be indirect. Binding calls can cover weak binding; strength is not graded here.

B1: Not2 (protein, UniProt Q94547 1-585)
chain: MANLNFQQPPRSIANAALAGRTTGGFGGSSLAGHVTPTSGMFQTDFANSYPGTANYGQAPQQQQQQQQQPQLSPNRNAQLSVGGPAISSGNRNANLFGQRQFVERRAMQGLGSGPMSNMGNFMQTGRGGYGTGGGGGGPLNNFHVFGGGGGSDTSTPALLDPTEFPSLTNARGQNDQTLPQSNPLQPPGSKPYGNFFTSFGMVKQPTSEQSEFTMSNEDFPALPGTQNSDGTTNAVGSVAGTGGSGGASTENHLDGTEKPMNSIVVSGSASGSSGSNVGVVGGNGLGAVGSGIGGLAVGGGGGAGSSGGGGVGGNAASGVVGGSHVGLVGSNSGIGGVNSVPNSNAMMGVGGGLGSGSGSSGSGAGGEHLNDNSSNDKLVKSGVQTSPDGKVTNIPATMVNNQFGMVGLLTFIRAAETDPNLVTLSLGTDLTGLGLNLNSQESLHTTFAGPFVAQPCRAQDVEFNVPPEYLINFAIRDKLTAPVLKKLQEDLLFFLFYTNIGDMMQLMAAAELHSREWRYHVEEKIWITRIPGIDQYEKNGTKERGTFYYFDAQSWKRLSKVFQIDPEKLDKCPNISAFMNGQSV
On to B1, for which the binding result is “binds”.
